Here are results for 73 compounds from the supplement of paper PMC9744312.

Where a name gives a salt, the structure may show the parent alone. The list shows a part of the results. This is a noisy data set.

This experiment deals with Peyronie's disease tunica albuginea primary fibroblasts. Kind of experiment: cell viability (DRAQ5 nuclear stain) relative to TGF-beta1-only control; higher = more viable cells. As to conditions: 10 µM; TGF-beta1 10 ng/mL; 72 h.
One may read the cell viability as a read-out of living cells in per cent, often relative to untreated cells. As to `CC(C)(C)c1ccc(C(=O)CCCN2CCC(OC(c3ccccc3)c3ccccc3)CC2)cc1` [Ebastine], the cell viability was 101%.

On to `O=c1ccn([C@@H]2O[C@H](CO)[C@@H](O)[C@H]2O)c(=O)[nH]1` [Uridine], for which the cell viability was found to be 97.3%.

For `[O-][n+]1cccc(CO)c1` [Mepiroxol], the cell viability worked out at 99.3%.

For `COc1ccc(C[C@H](N)C(=O)N[C@H]2[C@@H](O)[C@H](n3cnc4c(N(C)C)ncnc43)O[C@@H]2CO)cc1` [Puromycin 2HCl], the cell viability is 23.4%.

Turning to `Cc1ccnc(NS(=O)(=O)c2ccc(N)cc2)n1` [Sulfamerazine], the cell viability stood at 96.1%.

On to `CCC[S+]([O-])c1ccc2[nH]c(NC(=O)OC)nc2c1` (stereo not drawn) [Albendazole Oxide], for which the cell viability is 81.8%.

Turning to `NC(=O)OCC(COC(N)=O)c1ccccc1` [Felbamate], the cell viability turned out to be 86.3%.

Regarding `COC(=O)N[C@H](C(=O)N[C@@H](Cc1ccccc1)[C@@H](O)CN(Cc1ccc(-c2ccccn2)cc1)NC(=O)[C@@H](NC(=O)OC)C(C)(C)C)C(C)(C)C` [Atazanavir], the cell viability came out at 92.1%.

`COC(=O)N[C@H](C(=O)N[C@@H](Cc1ccccc1)[C@@H](O)CN(Cc1ccc(-c2ccccn2)cc1)NC(=O)[C@@H](NC(=O)OC)C(C)(C)C)C(C)(C)C` [Atazanavir Sulfate]: the cell viability was 94.8%.

For the compound `N.N.O=C([O-])C[O-].[Pt+2]` [Nedaplatin], the cell viability is 82.4%.

`NCCCC(O)(P(=O)(O)O)P(=O)(O)O` [Alendronate sodium trihydrate]: the cell viability came to 97.1%.

In the case of `CNC[C@H](O)[C@@H](O)[C@H](O)[C@H](O)CO` [Meglumine], the cell viability came to 97.1%.

Regarding `CN(C)CCn1nnnc1SCC1=C(C(=O)O)N2C(=O)[C@@H](NC(=O)Cc3csc(N)n3)[C@H]2SC1` [Cefotiam hydrochloride], the cell viability stood at 103%.

In the case of `COc1cc(C2Oc3cc([C@H]4Oc5cc(O)cc(O)c5C(=O)[C@@H]4O)ccc3OC2CO)ccc1O` (stereo partly drawn) [Silibinin], the cell viability was found to be 85.4%.

Turning to `C[C@]1(c2nc3c(C(N)=O)cccc3[nH]2)CCCN1` [Veliparib (ABT-888)], the cell viability came to 92.6%.

On to `CC(=O)N[C@@H](CS)C(=O)O` [Acetylcysteine], for which the cell viability is 87%.

As to `CC(=O)O[C@H]1C[C@@]2(C)[C@@H](C[C@@H](O)[C@H]3[C@@]4(C)CC[C@@H](O)[C@@H](C)[C@@H]4CC[C@@]32C)/C1=C(\CCC=C(C)C)C(=O)O` [Fusidate Sodium], the cell viability is 90.4%.

Turning to `C[C@@H](c1nc(-c2ccc(C#N)cc2)cs1)[C@](O)(Cn1cncn1)c1cc(F)ccc1F` [Isavuconazole], the cell viability came out at 89.4%.

Take `CCN(CC)CCOC(=O)c1ccc(N)cc1` [Procaine HCl]: the cell viability amounted to 86.1%.

Turning to `CCN(CC)CCOC(=O)c1ccc(N)cc1` [Procaine], the cell viability worked out at 86.4%.

Take `CC[C@H](C)C(=O)O[C@H]1C[C@@H](C)C=C2C=C[C@H](C)[C@H](CC[C@@H]3C[C@@H](O)CC(=O)O3)[C@H]21` [Lovastatin]: the cell viability was determined as 71.1%.

For the compound `Clc1ccc(C(Cn2ccnc2)OCc2ccc(Sc3ccccc3)cc2)c(Cl)c1` (stereo not drawn) [Fenticonazole Nitrate], the cell viability was found to be 89.1%.

`O=c1sn(-c2cccc3ccccc23)c(=O)n1Cc1ccccc1` [Tideglusib]: the cell viability came out at 90.4%.

Consider `CN1CC(O)C2=C/C(=N/NC(N)=O)C(=O)C=C21` (stereo not drawn) [Carbazochrome], for which the cell viability was found to be 94.1%.

As for `Nc1c2c(nc3ccccc13)CCCC2` [Tacrine HCl], the cell viability was 84.3%.

For `CCCCC(CC)COC(=O)C(C#N)=C(c1ccccc1)c1ccccc1` (stereo not drawn) [Octocrylene], the cell viability was determined as 91.8%.

On to `CCN(CC)C(=S)SSC(=S)N(CC)CC` [Disulfiram], for which the cell viability was determined as 92.9%.

For `COc1cc2/c(=N/c3ccc(Br)cc3F)nc[nH]c2cc1OCC1CCN(C)CC1` [Vandetanib (ZD6474)], the cell viability is 92.3%.

For the compound `CC1(C)O[C@@H]2C[C@H]3[C@@H]4CCC5=CC(=O)C=C[C@]5(C)[C@H]4[C@@H](O)C[C@]3(C)[C@]2(C(=O)CO)O1` [Desonide], the cell viability was determined as 64.9%.

`O=C(O)c1ccc2c(c1)nc(Nc1cccc(Cl)c1)c1ccncc12` [Silmitasertib (CX-4945)]: the cell viability was 101%.

For `O=C(CCCCCCC(=O)Nc1ccccc1)NO` [Vorinostat (SAHA, MK0683)], the cell viability came out at 69.4%.

As to `CC[C@H]1OC(=O)C[C@@H](O)[C@H](C)[C@@H](O[C@@H]2O[C@H](C)[C@@H](O[C@H]3C[C@@](C)(O)[C@@H](O)[C@H](C)O3)[C@H](N(C)C)[C@H]2O)[C@@H](CC=O)C[C@@H](C)C(=O)/C=C/C(C)=C/[C@@H]1CO[C@@H]1O[C@H](C)[C@@H](O)[C@@H](OC)[C@H]1OC` [Tylosin tartrate], the cell viability stood at 92.1%.

On to `NC[C@H]1O[C@H](O[C@H]2[C@H](O)[C@@H](O[C@H]3O[C@H](CO)[C@@H](O)[C@H](N)[C@H]3O)[C@H](N)C[C@@H]2N)[C@H](O)[C@@H](O)[C@@H]1O` [Kanamycin sulfate], for which the cell viability is 96.8%.

As to `C[C@H](Oc1ccc(S(C)(=O)=O)cc1C(=O)N1CCN(c2ncc(C(F)(F)F)cc2F)CC1)C(F)(F)F` [Bitopertin], the cell viability came to 87%.

For the compound `COC(=O)N[C@H](C(=O)N1CCC[C@H]1c1nc(-c2ccc3c(c2)O[C@@H](c2ccccc2)n2c-3cc3cc(-c4c[nH]c([C@@H]5CCCN5C(=O)[C@@H](NC(=O)OC)C(C)C)n4)ccc32)c[nH]1)C(C)C` [Elbasvir], the cell viability was 100%.

As to `CCNC(=O)CCC/C=C\C[C@@H]1[C@@H](/C=C/[C@@H](O)CCc2ccccc2)[C@H](O)C[C@@H]1O` [Bimatoprost], the cell viability came out at 89%.

Take `COC(=O)C1=C(C)NC(C)=C(C(=O)OC2CCCN(Cc3ccccc3)C2)C1c1cccc([N+](=O)[O-])c1` (stereo not drawn) [Benidipine HCl]: the cell viability came to 86.7%.

`CN[C@H]1C(=O)N[C@@H]2Cc3ccc(cc3)Oc3cc4cc(c3O[C@@H]3O[C@H](C(=O)O)[C@@H](O)[C@H](O)[C@H]3NC(=O)CCCCCCCCC(C)C)Oc3ccc(cc3Cl)[C@@H](O)[C@@H]3NC(=O)[C@H](NC(=O)[C@@H]4NC(=O)[C@@H](NC2=O)c2cc(cc(O)c2Cl)Oc2cc1ccc2O)c1ccc(O)c(c1)-c1c(O[C@H]2O[C@H](CO)[C@@H](O)[C@H](O)[C@@H]2O)cc(O)cc1[C@@H](C(=O)NCCCN(C)C)NC3=O` [Dalbavancin]: the cell viability stood at 90.5%.

With `CC1(C)S[C@@H]2[C@H](NC(=O)[C@H](C(=O)O)c3ccsc3)C(=O)N2[C@H]1C(=O)O` [Ticarcillin sodium], the cell viability stood at 87.8%.

As to `CN[C@@H]1[C@@H](O)[C@@H](O[C@@H]2[C@@H](O)[C@H](O[C@H]3OC(CN)=CC[C@H]3N)[C@@H](N)C[C@H]2N)OC[C@]1(C)O` [Sisomicin sulfate], the cell viability stood at 59.9%.

For the compound `CC(C)OC(=O)CCC/C=C\C[C@@H]1[C@@H](/C=C/[C@@H](O)COc2cccc(C(F)(F)F)c2)[C@H](O)C[C@@H]1O` [Travoprost], the cell viability came out at 85.3%.

Take `O=C1CN(/N=C/c2ccc(-c3ccc([N+](=O)[O-])cc3)o2)C(=O)N1` [Dantrolene sodium]: the cell viability is 88.8%.

As to `O=C1CN(/N=C/c2ccc(-c3ccc([N+](=O)[O-])cc3)o2)C(=O)N1` [Dantrolene sodium hemiheptahydrate], the cell viability amounted to 99.3%.

On to `CC1(O)CCC(C(C)(C)O)CC1` (stereo not drawn) [Terpin hydrate], for which the cell viability was 83.2%.

For the compound `CCOC(=O)n1ccn(C)c1=S` [Carbimazole], the cell viability came to 85.7%.

As for `C[C@H](N)[C@H](O)c1cccc(O)c1` [Metaraminol Bitartrate], the cell viability turned out to be 99.8%.

Take `CC1(C)S[C@@H]2[C@H](NC(=O)C(C(=O)O)c3ccccc3)C(=O)N2[C@H]1C(=O)O` (stereo partly drawn) [Carbenicillin disodium]: the cell viability came out at 98.4%.

In the case of `CC(C)(C)C(=O)C(Oc1ccc(Cl)cc1)n1ccnc1` (stereo not drawn) [Climbazole], the cell viability is 37.2%.

Turning to `Cc1ccccc1OCC(O)CO` (stereo not drawn) [Mephenesin], the cell viability came out at 88%.

Consider `Cl.NCCCC[C@H](N)C(=O)O` [L-Lysine hydrochloride], for which the cell viability is 92.4%.

For `COC(=O)N[C@H](C(=O)N1CCC[C@H]1c1ncc(-c2ccc(-c3ccc(-c4cnc([C@@H]5CCCN5C(=O)[C@@H](NC(=O)OC)C(C)C)[nH]4)cc3)cc2)[nH]1)C(C)C`, the cell viability was 93%.

On to `O=NN(CCCl)C(=O)NCCCl` [Carmustine], for which the cell viability stood at 90%.

For `CCOC(=O)c1ncn2c1CN(C)C(=O)c1cc(F)ccc1-2` [Flumazenil], the cell viability was determined as 87.9%.

Turning to `Cc1cc(C)c2c(c1)[C@@H](N(Cc1cc(C(F)(F)F)cc(C(F)(F)F)c1)c1nnn(C)n1)CCCN2C[C@H]1CC[C@H](C(=O)O)CC1`, the cell viability was 85.3%.

Consider `COc1cc(C(C)=O)ccc1OCCCN1CCC(c2noc3cc(F)ccc23)CC1` [Iloperidone], for which the cell viability worked out at 86.4%.

Turning to `CCCC1O[C@@H]2C[C@H]3[C@@H]4CCC5=CC(=O)C=C[C@]5(C)[C@H]4[C@@H](O)C[C@]3(C)[C@]2(C(=O)CO)O1` (stereo partly drawn) [Budesonide], the cell viability came out at 82.8%.

`CCOc1ccc(Cc2cc([C@]34OC[C@](CO)(O3)[C@@H](O)[C@H](O)[C@H]4O)ccc2Cl)cc1` [Ertugliflozin]: the cell viability was 84.4%.

Consider `Cc1cccc(C)c1N(CC(=O)Nc1ccc(-c2ncon2)cc1)C(=O)C1CCS(=O)(=O)CC1` [Amenamevir], for which the cell viability worked out at 101%.

With `CCCCC(CC)COC(=O)C=Cc1ccc(OC)cc1` (stereo not drawn) [Octinoxate], the cell viability stood at 90.8%.

In the case of `CC(C)NCC(O)c1ccc(O)c(O)c1` (stereo not drawn) [Isoprenaline HCl], the cell viability was 96.7%.

As to `COc1ccc2[nH]c([S@@+]([O-])Cc3ncc(C)c(OC)c3C)nc2c1` [NEXIUM (esomeprazole magnesium)], the cell viability was determined as 79.5%.

Consider `COc1ccc2[nH]c([S@@+]([O-])Cc3ncc(C)c(OC)c3C)nc2c1` [Esomeprazole sodium], for which the cell viability amounted to 94.2%.

For the compound `CCCCOC(=O)c1ccccc1Nc1cccc(C(F)(F)F)c1` [Ufenamate], the cell viability stood at 122%.

For `COc1ccc(C(=O)c2ccccc2)c(O)c1` [Oxybenzone], the cell viability came to 112%.

Regarding `COc1ncnc(NS(=O)(=O)c2ccc(N)cc2)c1OC` [Sulfadoxine], the cell viability worked out at 88%.

On to `CC(=O)OCC(=O)[C@@]1(O)[C@H](C)C[C@H]2[C@@H]3CCC4=CC(=O)C=C[C@]4(C)[C@@]3(F)[C@@H](O)C[C@@]21C` [Dexamethasone Acetate], for which the cell viability turned out to be 70.4%.

In the case of `COc1ccc(C(=O)CC(=O)c2ccc(C(C)(C)C)cc2)cc1` [Avobenzone], the cell viability was 87.8%.

Regarding `CCOC(=O)C1=C(C)NC(C)=C(C(=O)OCC)C1c1ccccc1/C=C/C(=O)OC(C)(C)C` [Lacidipine], the cell viability was 85.1%.

With `CCc1ccc(Cc2ccc3c(c2)[C@]2(OC3)O[C@H](CO)[C@@H](O)[C@H](O)[C@H]2O)cc1` [Tofogliflozin(CSG 452)], the cell viability turned out to be 95.2%.

On to `CCOc1cc(CC(=O)N[C@@H](CC(C)C)c2ccccc2N2CCCCC2)ccc1C(=O)O` [Repaglinide], for which the cell viability is 93.7%.

Regarding `CN[C@@H]1[C@@H](O)[C@@H](O[C@@H]2[C@@H](O)[C@H](O[C@H]3O[C@H](CN)[C@@H](O)[C@H](O)[C@H]3O)[C@@H](N)C[C@H]2NC(=O)[C@@H](O)CN)OC[C@]1(C)O` [Isepamicin Sulphate], the cell viability was found to be 95.7%.

Turning to `C#C[C@]1(O)CC[C@H]2[C@@H]3CCc4cc(O)ccc4[C@H]3CC[C@@]21C` [Ethinyl Estradiol], the cell viability turned out to be 82.3%.

In the case of `Cc1occc(=O)c1O` [Maltol], the cell viability is 93%.
